In US20100254928A1, “NOVEL COMPOSITION CONTAINING OZONIZED SURFACTANT” (priority 2007, published 2010):

Legend:
[1] = system: standard activated sludge; assay: Biodegradability test (biochemical oxygen consumption); details: activated sludge 30 mg/L, 25±1° C.
[2] = Detergency against dirt on the floor; design: key: Excellent: Obviously superior to POE (20 EO) lauryl ether; Good: Comparable to POE (20 EO) lauryl ether; Fair: Slightly inferior to POE (20 EO) lauryl ether; Poor: Obviously inferior to POE (20 EO) lauryl ether; details: 0.2% aqueous solution, pH 7.2, room temperature, 3 panel members averaged

With `Nc1ccccc1` [aniline, reference compound] the “Degradation, Day 7” value [1] was 50%, the “Degradation, Day 14” value [1] was 68% and the “Degradation, Day 15” value [1] was 69%. The “Degradation, Day 28” value [1] was 69%, the “BOD, Day 7” value ([1]; 300 mL) was 54.1 mg and the “BOD, Day 14” value ([1]; 300 mL) was 73.4 mg. For the same compound, the “BOD, Day 15” value ([1]; 300 mL) was 73.6 mg and the “BOD, Day 28” value ([1]; 300 mL) was 74.3 mg.

For “decaglycerin monooleate [Decaglycerol monooleate, reference compound]”, the “Detergency against dirt on the floor (Visually observed)” value [2] was “Fair”.
